Test results: PMC10357015
No constants are given. Whether binding was seen depends on the method and setting. In cells and extracts the contact can be indirect. Binding calls can cover weak binding; strength is not graded here.

Biological target: Myc-Tau^P301L (human)
Assay: co-IP; Myc-Trap beads (Chromotek) on mitochondria isolated from HeLaGAL cells over-producing Myc-tagged proteins, gently lysed with 4.5 g GDN/g protein in IP buffer (0.1 M Tris-HCl, 0.15 M NaCl, phospholipids, protease inhibitors); overnight at 4°C; eluted proteins analysed by western blot

Binder | binding
TOM40 (protein, UniProt O96008 1-361) MGNVLAASSPPAGPPPPPAPALVGLPPPPPSPPGFTLPPLGGSLGAGTSTSRSSERTPGAATASASGAAEDGACGCLPNPGTFEECHRKCKELFPIQMEGVKLTVNKGLSNHFQVNHTVALSTIGESNYHFGVTYVGTKQLSPTEAFPVLVGDMDNSGSLNAQVIHQLGPGLRSKMAIQTQQSKFVNWQVDGEYRGSDFTAAVTLGNPDVLVGSGILVAHYLQSITPCLALGGELVYHRRPGEEGTVMSLAGKYTLNNWLATVTLGQAGMHATYYHKASDQLQVGVEFEASTRMQDTSVSFGYQLDLPKANLLFKGSVDSNWIVGATLEKKLPPLPLTLALGAFLNHRKNKFQCGFGLTIG | binds
TIM23 (protein, UniProt O14925 1-209) MEGGGGSGNKTTGGLAGFFGAGGAGYSHADLAGVPLTGMNPLSPYLNVDPRYLVQDTDEFILPTGANKTRGRFELAFFTIGGCCMTGAAFGAMNGLRLGLKETQNMAWSKPRNVQILNMVTRQGALWANTLGSLALLYSAFGVIIEKTRGAEDDLNTVAAGTMTGMLYKCTGGLRGIARGGLTGLTLTSLYALYNNWEHMKGSLLQQSL | no binding
